From ChEMBL document CHEMBL3988442, “University of Dundee, Small-Polar-MMV Screening Library” (2021).

By UniProt entry, the sequences of proteins in these tests, tags left out. Residues count along the entry.
UniProt P9WPC5, whole entry: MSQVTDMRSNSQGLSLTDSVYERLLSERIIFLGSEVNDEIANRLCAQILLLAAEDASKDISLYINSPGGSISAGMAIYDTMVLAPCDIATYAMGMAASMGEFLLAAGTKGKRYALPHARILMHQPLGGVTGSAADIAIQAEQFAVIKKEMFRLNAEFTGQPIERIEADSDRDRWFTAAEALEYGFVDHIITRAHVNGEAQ
UniProt P9WPC3, whole entry partner: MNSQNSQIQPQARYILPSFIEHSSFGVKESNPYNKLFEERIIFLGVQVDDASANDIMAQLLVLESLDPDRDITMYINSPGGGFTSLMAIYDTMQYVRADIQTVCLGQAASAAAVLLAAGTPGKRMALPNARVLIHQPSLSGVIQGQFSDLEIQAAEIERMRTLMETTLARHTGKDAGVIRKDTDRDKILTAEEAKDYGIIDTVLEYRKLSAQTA
UniProt I6X8D2, whole entry: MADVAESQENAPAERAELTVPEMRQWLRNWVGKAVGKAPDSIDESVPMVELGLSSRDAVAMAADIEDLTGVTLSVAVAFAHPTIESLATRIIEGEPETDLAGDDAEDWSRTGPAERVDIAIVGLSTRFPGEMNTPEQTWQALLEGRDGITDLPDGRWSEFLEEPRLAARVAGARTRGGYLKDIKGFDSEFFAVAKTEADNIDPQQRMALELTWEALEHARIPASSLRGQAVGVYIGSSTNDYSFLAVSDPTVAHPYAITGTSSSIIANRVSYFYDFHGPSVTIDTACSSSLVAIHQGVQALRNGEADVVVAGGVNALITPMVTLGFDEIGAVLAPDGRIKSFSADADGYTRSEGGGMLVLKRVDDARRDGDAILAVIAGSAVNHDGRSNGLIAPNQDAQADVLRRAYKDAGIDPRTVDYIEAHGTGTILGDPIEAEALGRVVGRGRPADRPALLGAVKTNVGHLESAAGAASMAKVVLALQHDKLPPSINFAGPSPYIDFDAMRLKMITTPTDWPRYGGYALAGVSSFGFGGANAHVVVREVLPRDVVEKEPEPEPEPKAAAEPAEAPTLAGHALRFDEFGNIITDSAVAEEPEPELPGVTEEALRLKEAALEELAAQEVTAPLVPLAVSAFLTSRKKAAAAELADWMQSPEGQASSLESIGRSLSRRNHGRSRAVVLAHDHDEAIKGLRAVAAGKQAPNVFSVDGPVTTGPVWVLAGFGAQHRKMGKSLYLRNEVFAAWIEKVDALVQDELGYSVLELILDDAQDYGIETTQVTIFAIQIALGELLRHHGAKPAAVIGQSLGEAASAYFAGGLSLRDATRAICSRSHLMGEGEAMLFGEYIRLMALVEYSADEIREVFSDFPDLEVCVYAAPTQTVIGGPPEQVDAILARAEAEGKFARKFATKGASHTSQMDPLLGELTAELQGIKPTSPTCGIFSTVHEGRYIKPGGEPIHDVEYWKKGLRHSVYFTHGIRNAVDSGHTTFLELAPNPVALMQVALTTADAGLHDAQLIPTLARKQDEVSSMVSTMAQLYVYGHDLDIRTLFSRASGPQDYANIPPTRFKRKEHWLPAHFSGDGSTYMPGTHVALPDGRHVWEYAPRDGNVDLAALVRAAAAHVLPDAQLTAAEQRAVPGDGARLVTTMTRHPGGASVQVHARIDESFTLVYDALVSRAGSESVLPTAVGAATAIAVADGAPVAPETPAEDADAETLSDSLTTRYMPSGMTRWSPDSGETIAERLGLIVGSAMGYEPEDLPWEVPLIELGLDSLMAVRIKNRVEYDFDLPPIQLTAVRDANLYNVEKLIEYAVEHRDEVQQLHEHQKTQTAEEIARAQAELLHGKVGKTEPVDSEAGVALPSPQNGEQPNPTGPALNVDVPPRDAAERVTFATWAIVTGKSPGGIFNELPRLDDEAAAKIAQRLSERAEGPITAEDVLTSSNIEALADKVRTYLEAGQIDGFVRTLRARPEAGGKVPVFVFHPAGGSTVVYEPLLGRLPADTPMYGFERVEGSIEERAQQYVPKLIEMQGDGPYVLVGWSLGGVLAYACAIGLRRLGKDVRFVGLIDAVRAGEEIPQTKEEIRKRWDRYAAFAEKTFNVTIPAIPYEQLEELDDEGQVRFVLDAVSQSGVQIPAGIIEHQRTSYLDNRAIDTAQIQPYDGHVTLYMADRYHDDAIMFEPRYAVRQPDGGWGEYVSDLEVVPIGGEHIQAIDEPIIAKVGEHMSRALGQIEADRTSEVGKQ
UniProt P9WNZ1, whole entry: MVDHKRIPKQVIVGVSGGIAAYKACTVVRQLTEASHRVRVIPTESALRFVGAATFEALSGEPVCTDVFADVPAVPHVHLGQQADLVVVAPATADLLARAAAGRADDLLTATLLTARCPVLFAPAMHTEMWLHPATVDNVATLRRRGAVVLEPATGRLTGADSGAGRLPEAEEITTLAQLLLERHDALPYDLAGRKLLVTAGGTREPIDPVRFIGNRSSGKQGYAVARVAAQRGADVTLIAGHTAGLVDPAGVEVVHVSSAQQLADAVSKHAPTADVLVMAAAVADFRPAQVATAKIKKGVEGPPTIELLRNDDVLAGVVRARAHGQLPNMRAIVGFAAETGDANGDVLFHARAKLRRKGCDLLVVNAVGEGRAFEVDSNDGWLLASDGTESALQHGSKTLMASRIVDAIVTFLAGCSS
UniProt A4I591, 1-473: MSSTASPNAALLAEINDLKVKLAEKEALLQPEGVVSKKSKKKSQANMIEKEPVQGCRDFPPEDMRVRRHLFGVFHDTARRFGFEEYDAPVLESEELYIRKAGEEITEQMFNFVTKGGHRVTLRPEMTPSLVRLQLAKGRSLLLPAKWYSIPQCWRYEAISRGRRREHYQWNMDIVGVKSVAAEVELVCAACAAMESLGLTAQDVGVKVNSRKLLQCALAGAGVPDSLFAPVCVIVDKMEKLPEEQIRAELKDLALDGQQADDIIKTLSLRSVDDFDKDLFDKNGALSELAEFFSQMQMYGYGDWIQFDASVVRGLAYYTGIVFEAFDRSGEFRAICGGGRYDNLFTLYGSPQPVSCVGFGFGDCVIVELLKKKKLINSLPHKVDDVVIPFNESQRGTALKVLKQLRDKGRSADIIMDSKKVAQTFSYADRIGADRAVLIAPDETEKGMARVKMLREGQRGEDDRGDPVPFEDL
UniProt Q4DA54, 1-478: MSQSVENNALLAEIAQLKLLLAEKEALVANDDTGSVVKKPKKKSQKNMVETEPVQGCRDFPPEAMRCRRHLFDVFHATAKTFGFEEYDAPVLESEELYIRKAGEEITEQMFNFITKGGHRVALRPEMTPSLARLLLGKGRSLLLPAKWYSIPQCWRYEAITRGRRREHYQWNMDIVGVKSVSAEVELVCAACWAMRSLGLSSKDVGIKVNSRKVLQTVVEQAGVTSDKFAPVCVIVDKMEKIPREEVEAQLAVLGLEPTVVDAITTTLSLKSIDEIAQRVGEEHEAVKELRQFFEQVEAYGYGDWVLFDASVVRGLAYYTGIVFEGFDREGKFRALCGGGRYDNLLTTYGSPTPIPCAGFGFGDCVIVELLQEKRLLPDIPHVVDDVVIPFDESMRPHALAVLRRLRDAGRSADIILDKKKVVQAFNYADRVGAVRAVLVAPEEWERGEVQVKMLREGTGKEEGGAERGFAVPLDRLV

A: 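Protease assay of ClpP1P2, read by the AMC dye that it sets free. Target: ClpP1P2, Mycobacterium tuberculosis (UniProt P9WPC5 and UniProt P9WPC3). Concentration: 50 µM. Direction is inferred from only a few compounds that gave an IC50; most scored high, so higher reads as stronger inhibition. Most other retested compounds had strongly negative values. Size under these conditions: about 69,000 compounds, about 10 of them at 50% or above in at least one test.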
B: 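Polyketide synthase Pks13, Mycobacterium tuberculosis (UniProt I6X8D2). Enzyme assay of the thioesterase domain of polyketide synthase 13; the read-out is not stated. Concentration: 30 µM. The record gives no direction; the compounds picked for IC50 retests had high values, so higher reads as stronger inhibition. About 67,000 compounds were tested under these conditions; 0.46% (about 300) showed 50% or more at least once.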
C: 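Coenzyme A biosynthesis protein CoaBC, Mycobacterium tuberculosis (UniProt P9WNZ1). Enzyme assay of CoaBC with a phosphate dye (Biomol Green) read at 650 nm. Concentration: 30 µM. Higher reads as stronger inhibition, judged from the few compounds that gave an IC50. Most strong results did not repeat in a second test. About 67,000 compounds were tested under these conditions; 0.06% (about 40) showed 50% or more at least once.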
D: 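Enzyme assay of histidyl-tRNA synthetase; the read-out is not stated. Target: Histidine-tRNA ligase, Leishmania infantum (UniProt A4I591). Tested at 30 µM. Direction is inferred from retests: higher values go with stronger inhibition. The assay is labelled LdHisRS but filed under L. infantum. Size under these conditions: about 69,000 compounds, about 410 of them at 50% or above in at least one test.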
E: 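Histidine-tRNA ligase, Trypanosoma cruzi CL Brener (UniProt Q4DA54). Enzyme assay of histidyl-tRNA synthetase; the read-out is not stated. Tested at 30 µM. Direction is inferred from retests: higher values go with stronger inhibition. Size under these conditions: about 69,000 compounds, about 31 of them at 50% or above in at least one test.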

The filed quantity is “Percent Effect” (%).
The record does not define 0% and 100%; most values in the screen are far below 50% and negative numbers occur (in some assays of this library far below -100).
Compounds were drawn at random from those tested, without regard to their results.
Two or more numbers in one place are separate tests of the same structure; such repeats can differ widely.
A dash means the value is not listed here; it may have been measured.

| structure | A | B | C | D | E |
|---|---|---|---|---|---|
| `O=C([C@H]1CN(Cc2ccccc2F)C[C@H]2OCC[C@@H]12)N1CCCO1` | -29.3% | 3.667% | 5.806% | 19.44% | 0.4975% |
| `Cc1ccc2[nH]c(CN(C)Cc3ccccc3C(=O)O)nc2c1` | -8.092% | -3.924% | 1.46% | 11.11% | 4.242% |
| `CCc1nnc2n1CCN(c1nc3ccccc3o1)C2` | -0.2647% | -11.3% | 1.205% | 7.463% | 1.064% |
| `O=C(CSCC1CC1)N1CCCN(c2ccc(F)cc2)CC1` | 9.983% | -17.98% | 1.975% | 20.98% | 9.453% |
| `Cc1nn(C)c(N(C)C)c1CNCc1ccnc(N2CCOCC2)c1` | 1.413% | -23.54% | 3.69% | 16.52% | 4.507% |
| `CC(C)N1CCO[C@H]2CN(C(=O)Cc3ccsc3)C[C@H]21` | 10.34% | -28.32% | 10.04% | 24% | 4.598% |
| `CC(C)(C)OC(=O)Cn1cccc(S(=O)(=O)N2CCCCCC2)c1=O` | -4.516% | 2.185% | 2.622% | 9.917% | 6.122% |
| `Clc1cccc(C(NCc2ncc[nH]2)c2ccccn2)c1` (stereo not shown) | 2.418% | -16.59% | 1.34% | 13.98% | 12.5% |
| `c1ccc(Oc2cc(CNCC3CNc4ccnn4C3)ccn2)cc1` (stereo not shown) | -2.328% | 5.958% | 5.744% | 37.84% | 10.15% |
| `Cn1c(-c2ccc(F)cc2)cn2cc(C(=O)N3CCC(N)C3)nc2c1=O` (stereo not shown) | -13.8% | - | 3.218% | 22% | 1.205% |
| `COc1ccccc1CN(CC1CCCO1)C(=O)c1ccc(F)cn1` (stereo not shown) | -11.32% | -7.919% | -3.674% | 6.122% | 0% |
| `O=C(N1CCC(Oc2ccncc2)C1)C1(c2ccccc2F)CC1` (stereo not shown) | 2.887% | -72.17% | 8.068% | 5.479% | 5.464% |
| `O=C1CNc2ncnc(N3CCN(Cc4cccc(F)c4)CC3)c2N1` | -9.078% | -3.217% | 0% | 20.99% | -0.4464% |
| `CCc1cccc(N2CCC(NC(=O)C3CCC3)CC2)c1` | -16.59% | -14.58% | 1.654% | 2.609% | 1.69% |
| `Cc1cc(CN2CCN(C(=O)NCc3nc(C)cs3)CC2)on1` | 3.14% | -5.95% | 9.85% | 22.73% | -1.515% |
| `c1cnc(N2CCC3(CCN(CC4CCOC4)CC3)C2)nc1` (stereo not shown) | 9.268% | 5.56% | 4.459% | 0.885% | 4% |
| `CC(C)CN(Cc1cnn(C)c1)C(=O)C1COc2ccccc2C1` (stereo not shown) | 18.15% | 14.19% | -2.263% | 3.226% | 2.618% |
| `O=C(NCC1CC1)C1CN(C(=O)Nc2ccccc2)CC12CCOCC2` (stereo not shown) | 11.41% | -20.53% | 3.448% | 8.257% | 9.244% |
| `CC(C)NC1CCN(CCc2ccc3c(c2)CCO3)CC1` | -3.475% | -15.71% | 62.5% and 5.67% | 14.61% | 7.772% |
| `O=C(NCC1CCS(=O)(=O)C1)N1CCN(c2cnccn2)CC1` (stereo not shown) | -12.37% | -0.2187% | -2.296% | 5.455% | 1.754% |
| `Cc1noc(C)c1C(=O)N1Cc2ncn(C)c2C(COCC2CC2)C1` (stereo not shown) | -4.228% | 3.173% | 3.96% | 4.505% | 2.21% |
| `O=C1CN(c2cc(-c3ccccc3F)nc3ccnn23)CCCN1` | -168.2% | 28.28% | 3.422% | 36.71% | 7.328% |
| `O=C([C@@H]1C[C@@H]2CCN(C3CCOCC3)C[C@H]2O1)N1CCOCC1` | -2.575% | -27.18% | 0.7407% | 20.83% | 6.542% |
| `O=C(c1ccc[nH]1)N1CCN(Cc2ccncc2)c2ncccc2C1` | -9.59% | -18.36% | -8.261% | 2.778% | 5.714% |
| `CCn1cc(CN2CCN(Cc3cccc(OC)c3)C(=O)C2)cc1C#N` | -12.95% | -23.37% | -0.9828% | 8.602% | 6.173% |
| `CCC(CC)NC(=O)c1ccc2c(c1)C(c1nc[nH]n1)CN2S(C)(=O)=O` (stereo not shown) | 0.7387% | -23.33% | 0.2415% | 9.091% | 9.677% |
| `CCOCCCNC(=O)c1ccccc1S(C)(=O)=O` | 2.287% | -25.86% | -3.914% | 8.571% | -1.087% |
| `CC(CNC(=O)c1cnccn1)Oc1cccc(Br)c1` (stereo not shown) | -13.19% | 13.58% | 2.445% | 9.677% | 0% |
| `CC(=O)N1CCC(NC(=O)CN2CCCc3c(F)ccc(C)c32)CC1` | -6.717% | 9.538% | 2.913% | 22.35% | 13.07% |
| `CCOCC1CN(C(=O)Cc2ccccn2)Cc2cn(CC)nc21` (stereo not shown) | 2.811% | -9.027% | 7.983% | 12.73% | 7.438% |
| `Cc1nnc(NC(=O)CN2CCCC(c3ccn[nH]3)C2)s1` (stereo not shown) | -5.251% | 3.485% | -5.03% | -2.564% | 6.18% |
| `CN(Cc1ccco1)[C@@H]1CN(C(=O)C2CCOCC2)C[C@@H]2CCCO[C@@H]21` | -11.83% | -19.73% | -4.562% | 17.74% | 6.14% |
| `O=C(NC1(c2nccs2)CCCC1)c1cc(C2CC2)on1` | -4.884% | -20.28% | -3.419% | 8.547% | 9.189% |
| `CCOCc1cc(CN2CCn3c(CO)nnc3C2)ccc1OC` | -0.7324% | -82.24% | -4.136% | 32.63% | 3.731% |
| `Cc1c(C(=O)O)sc2nc(Cc3ccccc3)nc(N)c12` | -0.1437% | -34.56% | 3.185% | 11.4% | 8.287% |
| `Cc1nc2ccccc2nc1CN1CCCC(Cn2cncn2)C1` (stereo not shown) | -19.22% | -2.539% | -2.376% | 13.22% | -1.681% |
| `Cc1c[nH]c(C2COCCN2C(=O)CCc2c(C)n[nH]c2C)n1` (stereo not shown) | 6.604% | -6.772% | -7.895% | 8.633% | 7.28% |
| `CN(Cc1cc(-c2cccnc2)no1)C(=O)c1cccn1C` | 6.687% | -37.6% | 1.951% | 13.33% | 15.58% |
| `CN(C)C1CCN(C(=O)C2SCCc3ccccc32)CC1` (stereo not shown) | -12.26% | -36.88% | -1.899% | 14.29% | 2.463% |
| `COc1ccccc1N1CCN(C(=O)Cn2nc(C)c(Cl)c2C)CC1` | -5.81% | -20.56% | 2.181% | 17.7% | 0.8772% |
| `CO[C@@H]1CCN(S(=O)(=O)c2cn(C)cn2)[C@H]1Cc1ccncc1` | -5.444% | -29.62% | -1.29% | 25% | -0.4975% |
| `CCn1c(C2CCN(C(=O)c3cc(Cl)no3)CC2)nn(C)c1=O` | 17.27% | 5.219% | 7.767% | 2.381% | 11.88% |
| `CCN(CC1CCCO1)C(=O)Nc1ccc(F)cc1OC` (stereo not shown) | -1.822% | -18.4% | 4.627% | 10.11% | -3.759% |
| `Cc1cnn(CC(C)NCc2ccc(OCc3nccn3C)cc2)c1` (stereo not shown) | -5.49% | -14.09% | 1.908% | 11.3% | 3.944% |
| `COc1cc(C)c(CN2CCC3(CC2)C(C(=O)O)CC(=O)N3C)cc1C` (stereo not shown) | 13.28% | -20.82% | 10.71% | 12.62% | 0.4149% |
| `COc1ccc(C)cc1CN1CCCC1c1noc(C2CC2)n1` (stereo not shown) | 15.89% | -26.76% | -1.686% | 36.92% | 11.11% |
| `CCN(CC)c1ccc(C(=O)N2CCCC2Cn2cc(C)cn2)cn1` (stereo not shown) | -17.93% | -13.39% | 4.211% | 17.59% | 3.226% |
| `O=C(CC1CC1)N1CCC2(COCc3cnc(-c4ccccc4)nc32)C1` (stereo not shown) | -7.279% | - | 0.8157% | 26.03% | 2.97% |
| `COCC1CC2(CCN(c3ccccn3)CC2)CN1C(C)C` (stereo not shown) | 2.071% | -12.39% | 4.084% | 1.98% | -1.508% |
| `CCC1COCCN1C(=O)NCc1nccn1CCc1ccccc1` (stereo not shown) | -6.992% | -9.265% | 4.968% | 3.109% | 3.867% |
| `O=C(c1cccs1)N1CCc2nnc(COc3cncnc3)n2CC1` | 10.13% | -23.3% | 13.75% | 23.08% | 2.674% |
| `CNc1nnc(CCn2nc(C)c(Br)c2C)s1` | -8.091% | -17.34% | 3.803% | 12.64% | 7.216% |
| `COCC(=O)N1CCC2(CC1)COCCN2CCN(C)C` | -8.479% | 1.588% | 3.68% | -1.887% | 0.5405% |
| `O=C(C1CC1)N1C[C@H]2CCCN(S(=O)(=O)c3ccc4c(c3)CCC4)[C@H]2C1` | 0.2317% | -10.78% | 2.871% | 15.83% | 5.747% |
| `Cc1cc(C)c(CNC(=O)N2CCC(N3CCCCC3)CC2)c(=O)[nH]1` | -6.961% | -2.451% | 4.645% | 11.29% | 1.031% |
| `Cc1ncnc(N2CCN(C(=O)C3CC4(CCNCC4)CN3)CC2)c1C` (stereo not shown) | -1.98% | 0.357% | -42.79% | 0% | 4.372% |
| `Cc1cccc(N2CC[C@@H]3[C@@H](CO[C@H]3CNS(C)(=O)=O)C2)n1` | 3.567% | 22.33% | -3.87% | -7.895% | 5.747% |
| `O=C(c1ccco1)N1CCO[C@@H]2CN(c3ncc(F)cn3)CC[C@@H]2C1` | -0.9648% | -32.7% | -5.285% | 1.754% | 5.376% |
| `Cc1cc(C)c2cc(C(=O)N3CCNC(=O)C3)[nH]c2c1` | -1.567% | -1.372% | -1.984% | 10% | 1.739% |

Once more, the final 7:

structure,A,B,C,D,E
COCC(=O)N1CCC2(CC1)COCCN2CCN(C)C,-8.479%,1.588%,3.68%,-1.887%,0.5405%
O=C(C1CC1)N1C[C@H]2CCCN(S(=O)(=O)c3ccc4c(c3)CCC4)[C@H]2C1,0.2317%,-10.78%,2.871%,15.83%,5.747%
Cc1cc(C)c(CNC(=O)N2CCC(N3CCCCC3)CC2)c(=O)[nH]1,-6.961%,-2.451%,4.645%,11.29%,1.031%
Cc1ncnc(N2CCN(C(=O)C3CC4(CCNCC4)CN3)CC2)c1C (stereo not shown),-1.98%,0.357%,-42.79%,0%,4.372%
Cc1cccc(N2CC[C@@H]3[C@@H](CO[C@H]3CNS(C)(=O)=O)C2)n1,3.567%,22.33%,-3.87%,-7.895%,5.747%
O=C(c1ccco1)N1CCO[C@@H]2CN(c3ncc(F)cn3)CC[C@@H]2C1,-0.9648%,-32.7%,-5.285%,1.754%,5.376%
Cc1cc(C)c2cc(C(=O)N3CCNC(=O)C3)[nH]c2c1,-1.567%,-1.372%,-1.984%,10%,1.739%